Experimental data as given in the supplement of paper PMC11006884.
This list holds what a sample rich in targets with a hit left over. This is a noisy data set. Only a part is listed here, and it is no random draw.

Protein sequences, listed by entry. Tags and fused reporters are not part of them. Lines headed by an entry give the natural chain unless they say otherwise; changes in a name come on top.
UniProt P28288: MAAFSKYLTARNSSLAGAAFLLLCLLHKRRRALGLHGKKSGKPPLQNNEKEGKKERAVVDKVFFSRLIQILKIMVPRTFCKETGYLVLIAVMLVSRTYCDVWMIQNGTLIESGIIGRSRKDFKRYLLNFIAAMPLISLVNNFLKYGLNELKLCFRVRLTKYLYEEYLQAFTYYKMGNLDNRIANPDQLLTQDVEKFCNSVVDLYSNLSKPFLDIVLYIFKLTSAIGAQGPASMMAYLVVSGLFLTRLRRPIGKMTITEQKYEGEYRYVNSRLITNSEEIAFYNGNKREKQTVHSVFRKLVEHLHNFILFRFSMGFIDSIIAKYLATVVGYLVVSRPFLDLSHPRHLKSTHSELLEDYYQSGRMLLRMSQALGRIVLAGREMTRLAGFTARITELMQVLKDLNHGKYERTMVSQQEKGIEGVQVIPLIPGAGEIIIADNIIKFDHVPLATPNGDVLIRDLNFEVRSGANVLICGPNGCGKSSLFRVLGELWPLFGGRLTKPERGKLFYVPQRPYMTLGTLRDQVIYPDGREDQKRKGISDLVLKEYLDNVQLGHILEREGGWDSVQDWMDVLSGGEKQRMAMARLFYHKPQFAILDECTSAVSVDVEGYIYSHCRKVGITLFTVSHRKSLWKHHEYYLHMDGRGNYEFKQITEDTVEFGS
UniProt P27695, whole entry, looked up: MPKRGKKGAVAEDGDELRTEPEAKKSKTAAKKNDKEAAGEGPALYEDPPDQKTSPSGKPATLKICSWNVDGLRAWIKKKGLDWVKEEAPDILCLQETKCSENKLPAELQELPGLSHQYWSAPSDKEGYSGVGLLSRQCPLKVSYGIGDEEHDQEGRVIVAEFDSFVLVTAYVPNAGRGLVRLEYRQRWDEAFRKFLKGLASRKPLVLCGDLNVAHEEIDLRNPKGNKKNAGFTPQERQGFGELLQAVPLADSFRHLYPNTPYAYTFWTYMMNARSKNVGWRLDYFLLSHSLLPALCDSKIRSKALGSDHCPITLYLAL
UniProt P26641, whole entry, looked up: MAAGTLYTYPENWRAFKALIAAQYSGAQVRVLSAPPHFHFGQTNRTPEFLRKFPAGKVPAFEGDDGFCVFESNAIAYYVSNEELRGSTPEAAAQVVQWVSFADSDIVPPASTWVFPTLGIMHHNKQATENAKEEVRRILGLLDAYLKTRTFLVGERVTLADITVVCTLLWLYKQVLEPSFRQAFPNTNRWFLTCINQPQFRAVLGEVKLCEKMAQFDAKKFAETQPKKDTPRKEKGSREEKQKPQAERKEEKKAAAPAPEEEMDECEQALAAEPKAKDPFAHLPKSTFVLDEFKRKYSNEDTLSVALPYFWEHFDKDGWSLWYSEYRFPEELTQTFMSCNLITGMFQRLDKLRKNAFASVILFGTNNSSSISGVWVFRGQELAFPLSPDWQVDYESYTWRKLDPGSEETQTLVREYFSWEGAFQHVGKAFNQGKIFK
UniProt P22695: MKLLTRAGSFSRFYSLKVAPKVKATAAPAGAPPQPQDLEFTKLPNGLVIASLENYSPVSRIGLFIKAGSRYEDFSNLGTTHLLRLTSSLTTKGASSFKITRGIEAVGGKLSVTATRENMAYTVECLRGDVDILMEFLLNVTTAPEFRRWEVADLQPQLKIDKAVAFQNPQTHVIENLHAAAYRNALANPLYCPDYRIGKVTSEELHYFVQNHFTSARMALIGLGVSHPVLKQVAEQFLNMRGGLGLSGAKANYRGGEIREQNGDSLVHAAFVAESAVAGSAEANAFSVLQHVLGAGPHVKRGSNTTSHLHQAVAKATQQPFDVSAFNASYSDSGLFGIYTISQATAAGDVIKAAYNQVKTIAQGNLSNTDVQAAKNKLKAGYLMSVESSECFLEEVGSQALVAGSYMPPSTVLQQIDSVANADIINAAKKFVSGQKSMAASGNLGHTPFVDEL
UniProt P23921: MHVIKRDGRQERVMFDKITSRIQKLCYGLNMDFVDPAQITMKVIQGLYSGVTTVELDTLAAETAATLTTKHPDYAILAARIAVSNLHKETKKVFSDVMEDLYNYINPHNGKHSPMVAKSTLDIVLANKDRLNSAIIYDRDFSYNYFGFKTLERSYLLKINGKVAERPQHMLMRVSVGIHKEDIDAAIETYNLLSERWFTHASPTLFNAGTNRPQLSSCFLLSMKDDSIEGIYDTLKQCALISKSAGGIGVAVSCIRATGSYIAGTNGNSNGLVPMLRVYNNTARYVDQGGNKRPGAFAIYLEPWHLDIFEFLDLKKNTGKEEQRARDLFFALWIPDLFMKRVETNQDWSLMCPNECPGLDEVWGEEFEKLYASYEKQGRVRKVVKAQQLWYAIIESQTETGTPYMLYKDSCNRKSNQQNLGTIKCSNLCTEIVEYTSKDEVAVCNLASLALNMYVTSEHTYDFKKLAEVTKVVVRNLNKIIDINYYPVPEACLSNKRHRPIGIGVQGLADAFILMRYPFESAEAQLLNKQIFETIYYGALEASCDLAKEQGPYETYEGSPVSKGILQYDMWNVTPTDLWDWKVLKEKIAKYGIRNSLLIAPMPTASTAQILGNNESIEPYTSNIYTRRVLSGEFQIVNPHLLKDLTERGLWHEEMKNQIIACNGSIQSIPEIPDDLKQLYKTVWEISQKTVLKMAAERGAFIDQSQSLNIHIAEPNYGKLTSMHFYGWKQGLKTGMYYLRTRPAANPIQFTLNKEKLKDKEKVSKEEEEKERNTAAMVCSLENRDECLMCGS
UniProt P21333, whole entry, looked up: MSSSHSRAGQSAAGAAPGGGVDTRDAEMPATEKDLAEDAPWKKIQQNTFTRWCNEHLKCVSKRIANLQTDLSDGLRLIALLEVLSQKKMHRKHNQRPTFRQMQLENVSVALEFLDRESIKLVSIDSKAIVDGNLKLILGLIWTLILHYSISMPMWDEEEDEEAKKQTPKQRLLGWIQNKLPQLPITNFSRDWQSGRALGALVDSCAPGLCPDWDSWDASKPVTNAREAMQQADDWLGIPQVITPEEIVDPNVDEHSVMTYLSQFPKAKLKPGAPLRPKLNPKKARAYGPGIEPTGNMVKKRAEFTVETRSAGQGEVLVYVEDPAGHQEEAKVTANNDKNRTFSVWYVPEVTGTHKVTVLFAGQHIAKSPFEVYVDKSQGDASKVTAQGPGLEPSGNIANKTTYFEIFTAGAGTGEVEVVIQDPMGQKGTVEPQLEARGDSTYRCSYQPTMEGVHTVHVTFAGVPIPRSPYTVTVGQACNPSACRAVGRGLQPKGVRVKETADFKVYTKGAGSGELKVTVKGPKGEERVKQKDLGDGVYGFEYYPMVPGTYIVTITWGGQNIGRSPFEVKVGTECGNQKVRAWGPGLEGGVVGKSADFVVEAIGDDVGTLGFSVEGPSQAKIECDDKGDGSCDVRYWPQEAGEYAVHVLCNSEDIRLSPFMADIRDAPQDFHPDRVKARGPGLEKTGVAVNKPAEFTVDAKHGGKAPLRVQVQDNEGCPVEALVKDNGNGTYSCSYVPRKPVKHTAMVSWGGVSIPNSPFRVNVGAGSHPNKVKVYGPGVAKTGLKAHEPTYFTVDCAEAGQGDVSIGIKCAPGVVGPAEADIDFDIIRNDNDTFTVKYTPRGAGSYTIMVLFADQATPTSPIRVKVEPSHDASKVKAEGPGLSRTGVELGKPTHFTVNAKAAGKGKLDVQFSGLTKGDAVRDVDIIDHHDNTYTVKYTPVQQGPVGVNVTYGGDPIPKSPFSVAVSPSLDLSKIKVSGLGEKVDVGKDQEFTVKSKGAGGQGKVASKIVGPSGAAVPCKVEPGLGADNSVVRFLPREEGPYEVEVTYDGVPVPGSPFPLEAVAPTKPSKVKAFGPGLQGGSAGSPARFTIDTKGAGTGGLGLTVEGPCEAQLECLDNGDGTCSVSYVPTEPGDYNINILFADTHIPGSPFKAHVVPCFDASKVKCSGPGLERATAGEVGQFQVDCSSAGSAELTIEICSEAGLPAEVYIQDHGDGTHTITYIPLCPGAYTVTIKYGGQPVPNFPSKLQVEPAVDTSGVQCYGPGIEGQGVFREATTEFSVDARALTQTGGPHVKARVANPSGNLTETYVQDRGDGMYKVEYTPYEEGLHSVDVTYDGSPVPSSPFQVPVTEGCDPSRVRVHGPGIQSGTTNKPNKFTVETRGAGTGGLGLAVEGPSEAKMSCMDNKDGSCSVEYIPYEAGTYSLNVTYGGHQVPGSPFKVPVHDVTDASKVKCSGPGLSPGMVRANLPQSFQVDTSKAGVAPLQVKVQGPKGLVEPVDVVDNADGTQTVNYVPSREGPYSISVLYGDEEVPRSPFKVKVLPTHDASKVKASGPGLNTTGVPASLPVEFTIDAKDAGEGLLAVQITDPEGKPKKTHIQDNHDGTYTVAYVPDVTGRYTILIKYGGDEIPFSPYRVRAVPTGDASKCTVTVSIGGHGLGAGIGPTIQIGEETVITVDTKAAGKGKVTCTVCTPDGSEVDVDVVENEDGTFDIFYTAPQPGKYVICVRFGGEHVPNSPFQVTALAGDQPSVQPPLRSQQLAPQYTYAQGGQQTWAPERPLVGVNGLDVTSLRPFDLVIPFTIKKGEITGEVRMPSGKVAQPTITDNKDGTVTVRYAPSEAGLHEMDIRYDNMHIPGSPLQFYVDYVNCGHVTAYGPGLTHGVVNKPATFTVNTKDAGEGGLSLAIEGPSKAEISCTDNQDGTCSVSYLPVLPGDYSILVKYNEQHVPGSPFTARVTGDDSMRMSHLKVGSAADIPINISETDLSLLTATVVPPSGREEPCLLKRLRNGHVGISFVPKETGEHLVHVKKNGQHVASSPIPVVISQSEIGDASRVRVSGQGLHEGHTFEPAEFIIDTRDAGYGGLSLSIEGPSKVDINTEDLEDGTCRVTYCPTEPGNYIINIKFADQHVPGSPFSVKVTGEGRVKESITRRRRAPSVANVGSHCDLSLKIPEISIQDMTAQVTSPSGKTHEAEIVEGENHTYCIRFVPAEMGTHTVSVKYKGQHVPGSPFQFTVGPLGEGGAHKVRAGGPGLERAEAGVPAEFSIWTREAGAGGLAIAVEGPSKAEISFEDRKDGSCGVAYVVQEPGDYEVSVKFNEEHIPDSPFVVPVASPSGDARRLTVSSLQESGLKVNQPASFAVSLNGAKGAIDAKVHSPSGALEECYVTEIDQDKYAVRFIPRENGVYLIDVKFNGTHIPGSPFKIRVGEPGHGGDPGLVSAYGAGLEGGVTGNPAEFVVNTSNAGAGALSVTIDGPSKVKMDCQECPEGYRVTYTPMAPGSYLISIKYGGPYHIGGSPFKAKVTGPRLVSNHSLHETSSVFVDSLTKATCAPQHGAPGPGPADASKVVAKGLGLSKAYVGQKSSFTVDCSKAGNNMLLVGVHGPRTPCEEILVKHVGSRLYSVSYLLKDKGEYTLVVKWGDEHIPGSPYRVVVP
UniProt P27816: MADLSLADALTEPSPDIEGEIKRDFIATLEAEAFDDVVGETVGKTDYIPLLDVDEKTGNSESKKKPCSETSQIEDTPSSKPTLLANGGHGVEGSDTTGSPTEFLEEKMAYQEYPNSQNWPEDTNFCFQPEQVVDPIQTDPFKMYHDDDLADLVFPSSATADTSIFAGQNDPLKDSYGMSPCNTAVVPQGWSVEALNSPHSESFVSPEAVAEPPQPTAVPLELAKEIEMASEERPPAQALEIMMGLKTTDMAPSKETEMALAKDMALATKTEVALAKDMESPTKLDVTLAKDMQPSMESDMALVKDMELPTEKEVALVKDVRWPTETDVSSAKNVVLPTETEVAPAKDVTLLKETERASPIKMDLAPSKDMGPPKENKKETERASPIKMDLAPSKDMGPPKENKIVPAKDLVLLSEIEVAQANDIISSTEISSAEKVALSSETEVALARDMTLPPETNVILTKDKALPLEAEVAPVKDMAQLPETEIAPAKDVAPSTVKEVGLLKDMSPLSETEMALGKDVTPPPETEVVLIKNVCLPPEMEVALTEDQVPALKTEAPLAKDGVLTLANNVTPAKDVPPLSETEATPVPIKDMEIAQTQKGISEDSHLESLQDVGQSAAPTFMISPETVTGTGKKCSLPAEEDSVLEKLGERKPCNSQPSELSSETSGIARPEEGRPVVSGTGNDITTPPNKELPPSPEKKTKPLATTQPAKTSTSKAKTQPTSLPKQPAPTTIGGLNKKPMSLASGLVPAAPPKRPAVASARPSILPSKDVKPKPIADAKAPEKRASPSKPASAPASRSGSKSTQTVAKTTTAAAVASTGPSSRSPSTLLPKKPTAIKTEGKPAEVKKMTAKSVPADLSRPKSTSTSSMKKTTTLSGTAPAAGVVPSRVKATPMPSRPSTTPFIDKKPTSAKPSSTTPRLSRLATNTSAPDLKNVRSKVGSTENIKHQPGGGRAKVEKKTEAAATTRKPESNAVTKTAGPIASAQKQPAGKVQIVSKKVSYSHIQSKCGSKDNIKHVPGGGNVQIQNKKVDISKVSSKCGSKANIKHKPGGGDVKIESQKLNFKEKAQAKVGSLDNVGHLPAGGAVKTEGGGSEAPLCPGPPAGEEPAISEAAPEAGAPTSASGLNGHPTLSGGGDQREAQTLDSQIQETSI

compound: COC(=O)/C=C/c1ccccc1 [methyl cinnamate]; assay: log2 ratio of iodoacetamide-alkyne labeling of the cysteine site, DMSO over compound (competition); higher = stronger covalent engagement of the cysteine by the compound, active = 1 or more; settings: 500 µM; treatment time 1 h; system: HEK293T cell lysate
In short: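 After 1 h at ambient temperature with vehicle or electrophile (500 µM), HEK293T lysate (2 mg/mL) was labelled for 1 h with iodoacetamide alkyne and clicked to sCIP-TMT reagents. Pooled samples were trypsin-digested overnight at 37 °C, streptavidin-enriched, acid-eluted and analysed by Orbitrap Eclipse LC-MS/MS with FAIMS, then quantified in FragPipe over three replicates with duplicate channels. A cysteine's log2 competition ratio is its mean control-channel over mean compound-channel reporter intensity. Cysteines quantified in only one replicate were not included.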

log2 ratio of iodoacetamide-alkyne labeling, inactive:
ABCD3 C477 (UniProt P28288) 0.186, VARS C720 (UniProt P26640) -0.0345, APC C352 (UniProt P25054) -0.18, ACO1 C369 (UniProt P21399) -0.0176, SON C92 (UniProt P18583) 0.0119, MPG C56 (UniProt P29372) 0.446, APC C2664 (UniProt P25054) 0.177, ECHS1 C225 (UniProt P30084) -0.052, VDAC1 C232 (UniProt P21796) 0.12, EEF1B2 C50 (UniProt P24534) 0.00502, XRCC1 C362 (UniProt P18887) 0.0239, APEX1 C93 (UniProt P27695) 0.125, EEF1G C266 (UniProt P26641) 0.339, MSN C284 (UniProt P26038) 0.0351, GART C237 (UniProt P22102) 0.261, UQCRC2 C192 (UniProt P22695) 0.0887, UniProt P25398_C69 0.0223, UniProt P25398_C56 0.128, RRM1 C352 (UniProt P23921) 0.0852, FLNA C2107 (UniProt P21333) 0.132, FLNA C1453 (UniProt P21333) 0.193, FLNA C1402 (UniProt P21333) 0.147, ABCD3 C472 (UniProt P28288) 0.186, VDAC1 C127 (UniProt P21796) 0.0875, UBA1 C413 (UniProt P22314) -0.0231, FLNA C2199 (UniProt P21333) 0.277, MAP4 C1008 (UniProt P27816) 0.489, ATP6V1C1 C15 (UniProt P21283) -0.101, VARS C663 (UniProt P26640) 0.0316, SCP2 C71 (UniProt P22307) 0.0153, DCK C59 (UniProt P27707) -0.265, UniProt P28482_C161 -0.0862, GART C93 (UniProt P22102) -0.0272, RPL10 C71 (UniProt P27635) 0.335, UniProt P20719_C233 0.0491, LMNB1 C110 (UniProt P20700) 0.193, RPS3 C119 (UniProt P23396) 0.181
